Data as given in PubChem BioAssay AID1224826 (NIAID, 2016).
Here is a random part of about 17,000 deposited reagents. Over the whole deposit, about 1,110 (6.6%) were called active. 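Active means lowered or raised reporter signal; replicate intensities are raw and not normalised per plate.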 Not all columns of the deposit are shown.

Aim: 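Genes that change LPS-induced Tnf promoter activity in mouse macrophages when knocked down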 (primary screen)
System: RAW264.7 G9 macrophages from mouse bearing reporters for p65 (GFP) and the Tnf promoter (mCherry)
Reagents: siRNA pool against mouse genes, 100 nM
Time to read-out: 16 h of LPS stimulation, after 2 days of siRNA transfection
Treatment: bacterial lipopolysaccharide (Salmonella minnesota R595), 10 ng/ml
Read-out: 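Imaged Tnf reporter mCherry in nuclei, minus background, normalised per plate to the median and expressed as robust z-scores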
Scale: Tnf reporter robust z-score: higher = stronger Tnf promoter reporter signal after LPS
Call rule: 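a well counts as active at a score of -1.3 or below (Tlr4 knock-down control median) or above 3 (raised signal); controls and wells holding fewer than 50 cells are excluded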
Meaning of the calls: active = Tnf reporter clearly lowered or raised; inactive = no clear change in Tnf reporter

Pcdhga10 → Tnf reporter robust z-score: 0.18; fewer than 50 cells in well: enough cells in well; outcome: inactive
Pfkfb3 → Tnf reporter robust z-score: 2.64; fewer than 50 cells in well: enough cells in well; outcome: inactive
Pfn3 → Tnf reporter robust z-score: 1.06; fewer than 50 cells in well: enough cells in well; outcome: inactive
Rgs13 → Tnf reporter robust z-score: 0.51; fewer than 50 cells in well: enough cells in well; outcome: inactive
Ttk → fewer than 50 cells in well: fewer than 50 cells per well; well left out of calls; outcome: inactive
Snx29 → Tnf reporter robust z-score: -0.12; fewer than 50 cells in well: enough cells in well; outcome: inactive

Reformatted: entries from further up
gene knocked down | Tnf reporter robust z-score | fewer than 50 cells in well | outcome
Rgs13 | 0.51 | enough cells in well | inactive
Ttk | – | fewer than 50 cells per well; well left out of calls | inactive

Additional reagents:
Apoa2 → Tnf reporter robust z-score: 0.52; fewer than 50 cells in well: enough cells in well; outcome: inactive
Pank4 → Tnf reporter robust z-score: 1.56; fewer than 50 cells in well: enough cells in well; outcome: inactive
Gabrb3 → Tnf reporter robust z-score: 1.48; fewer than 50 cells in well: enough cells in well; outcome: inactive
D630004N19Rik → fewer than 50 cells in well: fewer than 50 cells per well; well left out of calls; outcome: inactive
Tmem86a → Tnf reporter robust z-score: 3.2; fewer than 50 cells in well: enough cells in well; outcome: active
Cst3 → Tnf reporter robust z-score: 0.32; fewer than 50 cells in well: enough cells in well; outcome: inactive
